For at least one entry, the source does not settle the construct or the ends of the probe. At least one verdict rests on a figure or table, not on a statement of the authors.
Tested on: CK-MB (creatine kinase MB)
Experiment: plate sandwich aptamer assay (ELAA), fluorescence
Settings: assay LOD 0.20 nM (not a Kd), 5'-biotin, streptavidin-coated plate, 5% BSA block, aptamer incubations 37 °C 30 min, PBST washes, ALP diluted in PBS pH 7.4, binding buffer salt not stated, label: biotin, single-stranded DNA

Row | Sequence | binding result (capture aptamer, with apt. A2 as detection aptamer, CK-MB 2.5-160 nM) | binding result (detection aptamer on CK-MB captured by apt. A1, CK-MB 2.5-160 nM)
1 | GGGGGGTGGGTGGGGGATCTCGGAGGATGCTTTTAGGGGGTTGGG [apt. A1] | binds | –
2 | CATTGAGAGGGGGTGGCCGTAGTCAGGTGGGTGGGGGTTTGAG [apt. A2] | – | binds

Reference: paper PMC12293767
